# The supplement of paper PMC12067093, “Discovery and optimisation of a covalent ligand for TRIM25 and its application to targeted protein ubiquitination” (Chemical Science, 2025)
# This is one part of the list.
# Compound: Cc1cc(ccc1-c1ccccc1)C(=O)N1CCCN(CC1)C(=O)CCl [compound 10]
# Assay: probe-labelled cysteine peptide fold change vs DMSO (competition) (log2 fold change); higher = less target engagement (more negative = stronger competition)
# Conditions: THP-1, incubation time: 4 h
# 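Note: competitive profiling in live THP-1 cells: cysteine peptides tagged with an iodoacetamide desthiobiotin (IA-DTB) probe, intensity after compound treatment relative to DMSO-treated cells.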
Target,probe-labelled cysteine peptide fold change (10 µM),probe-labelled cysteine peptide fold change (50 µM)
HDGF_P51858_108_SCVEEPEPEPEAAEGDGDKK (UniProt P51858),-0.119,-0.437
HMGCS1_Q01581_86_NNLSYDCIGR (UniProt Q01581),-0.204,-0.183
HERC2_O95714_3865_VLVALACDLELDTLPCCAETHK (UniProt O95714),-0.408,-0.502
HCFC1_P51610_227_LVIYGGMSGCR (UniProt P51610),-0.0506,-0.268
HMGCL_P35914_323_VAQATCK (UniProt P35914),-0.282,-0.413
HDAC3_O15379_279_GHGECVEYVK (UniProt O15379),0.0141,0.228
HK3_P52790_634_ASDCEGQDVVSLLR (UniProt P52790),0.136,0.116
HCLS1_P14317_470_CHGHFGLFPANYVK (UniProt P14317),0.0138,-0.0493
HLA-DRB1_P04229_59_CIYNQEESVR (UniProt P04229),0.0937,0.223
HINT1_P49773_38_IIFEDDRCLAFHDISPQAPTHFLVIPK (UniProt P49773),-0.358,-0.567
HK3_P52790_269_VCVSVEWGSFSDDGALGPVLTTFDHTLDHESLNPGAQR (UniProt P52790),0.11,-0.559
HDHD3_Q9BSH5_243_EHILPSLAHLLPALDCLEGSTPGL (UniProt Q9BSH5),-0.209,0.176
HCK_P08631_241_LSVPCMSSK (UniProt P08631),-0.0986,0.102
HDAC10_Q969S8_145_AAANGFCVFNNVAIAAAHAK (UniProt Q969S8),-0.0333,-0.0233
HMGCR_P04035_708_SVVCEAVIPAK (UniProt P04035),0.31,0.159
HK1_P19367_886_CNVSFLLSEDGSGK (UniProt P19367),0.132,0.0813
HDAC6_Q9UBN7_539_CLTLTPRPATEAELLTCHSAEYVGHLR (UniProt Q9UBN7),-0.173,-0.424
HDLBP_Q00341_104_ICLEIMQR (UniProt Q00341),0.172,0.0311
HEATR5B_Q9P2D3_1693_EACTVLGEGGDSGGLIPGK (UniProt Q9P2D3),-0.244,0.155
HERC2_O95714_1037_ISSCLDFEQHSR (UniProt O95714),0.0441,0.321
HGS_O14964_75_NCGQTVHDEVANK (UniProt O14964),0.223,0.299

Target,probe-labelled cysteine peptide fold change (10 µM),probe-labelled cysteine peptide fold change (50 µM)
HDAC5_Q9UQL6_982_CFGHLTR (UniProt Q9UQL6),0.138,-0.104
HELZ_P42694_601_LPLCEMHYALDR (UniProt P42694),-0.00554,0.166
HECTD1_Q9ULT8_1955_DFCEHGTK (UniProt Q9ULT8),0.0397,-0.0184
HK2_P52789_909_GAALITAVACR (UniProt P52789),-0.0759,0.143
HEATR3_Q7Z4Q2_20_RPQFSPTGDCQAEAAAAANGTGGEEDDGPAAELLEK (UniProt Q7Z4Q2),0.0227,-0.0305
HDAC3_O15379_59_MIVFKPYQASQHDMCR (UniProt O15379),-0.533,0.0537
HDAC10_Q969S8_23_LLWDDPECEIERPER (UniProt Q969S8),-0.294,-0.208
HERC1_Q15751_3849_QQGVLGLNMAPCMR (UniProt Q15751),-0.0203,-0.0603
HECTD4_Q9Y4D8_757_AMWGFACTVR (UniProt Q9Y4D8),0.135,0.389
HIP1_O00291_906_GKFEELMVCSHEIAASTAQLVAASK (UniProt O00291),0.0805,0.788
HDAC2_Q92769_285_CVEVVK (UniProt Q92769),0.0827,0.14
HDAC10_Q969S8_102_ETQVLGKEELQALSGQFDAIYFHPSTFHCAR (UniProt Q969S8),0.446,0.128
HEATR6_Q6AI08_846_ALGVYVLFPCLR (UniProt Q6AI08),-0.729,0.0143
HDDC3_Q8N4P3_133_CTPEGWSEHR (UniProt Q8N4P3),0.13,-0.00995
HMGCS1_Q01581_224_LSIQCYLSALDR (UniProt Q01581),-0.0461,0.0606
HDAC1_Q13547_12_KVCYYYDGDVGNYYYGQGHPMK (UniProt Q13547),0.0487,-0.337
HEATR3_Q7Z4Q2_655_GNYSTDQLCVLDNVK (UniProt Q7Z4Q2),-0.314,0.137
HMBS_P08397_261_HLEGGCSVPVAVHTAMK (UniProt P08397),-0.0518,-0.324
HDAC1_Q13547_12_KVCYYYDGDVGNYYYGQGHPMKPHR (UniProt Q13547),-0.223,-0.882
HECTD1_Q9ULT8_487_GHSEVVAILQSPGDWMCPVNK (UniProt Q9ULT8),0.0516,-0.292
HENMT1_Q5T8I9_56_KVADLGCGDTSLLR (UniProt Q5T8I9),-0.0187,-0.456

Target,probe-labelled cysteine peptide fold change (10 µM),probe-labelled cysteine peptide fold change (50 µM)
HDAC10_Q969S8_102_EELQALSGQFDAIYFHPSTFHCAR (UniProt Q969S8),0.255,-0.0511
HIRIP3_Q9BW71_449+450_LLGSCCSHK (UniProt Q9BW71),0.225,-0.859
HIGD2A_Q9BW72_53_TRENPVVPIGCLATAAALTYGLYSFHR (UniProt Q9BW72),0.219,0.296
HDAC3_O15379_94_SLNAFNVGDDCPVFPGLFEFCSR (UniProt O15379),0.167,0.172
HECTD3_Q5T447_356_IVECRDDGIDVR (UniProt Q5T447),0.0162,-0.165
HGS_O14964_185_ACGQIFCGK (UniProt O14964),0.0596,-0.0678
HECTD1_Q9ULT8_131_VLELICTR (UniProt Q9ULT8),0.0517,0.125
HDLBP_Q00341_683_SIMEECGGVHIHFPVEGSGSDTVVIRGPSSDVEK (UniProt Q00341),0.134,-0.0608
HECTD3_Q5T447_744_VCGDPEVTVDALR (UniProt Q5T447),-0.0665,0.255
HK2_P52789_813_AILQHLGLESTCDDSIIVK (UniProt P52789),0.17,0.242
HCFC2_Q9Y5Z7_125_VKPHPPPSGLPPCPR (UniProt Q9Y5Z7),-0.132,0.158
HEATR5B_Q9P2D3_1262_IINLCENADQAHFDLALAR (UniProt Q9P2D3),-0.034,0.126
HERC1_Q15751_1991_LFSLLSDCMWETPIAQAK (UniProt Q15751),0.35,0.0151
HIP1_O00291_220_SVSVTAAGQCR (UniProt O00291),-0.0719,-0.0351
HLTF_Q14527_812_NDIHEDNLLECPPEELAR (UniProt Q14527),0.00182,0.123
HERC5_Q9UII4_468_DWITNMITTCLK (UniProt Q9UII4),-0.00088,-0.0192
HELLS_Q9NRZ9_169_ENEDENSSSTNLCVEDLQK (UniProt Q9NRZ9),-0.162,0.0229
HERPUD1_Q15011_68_LLLDHQCLR (UniProt Q15011),0.794,0.718
HELZ_P42694_696_ILICTHSNSAADLYIK (UniProt P42694),0.272,0.506
HLA-DRA_P01903_188_KFHYLPFLPSTEDVYDCR,-0.0489,-0.104
HERC5_Q9UII4_892_MCDEDIIK (UniProt Q9UII4),-0.0238,-0.282

Target,probe-labelled cysteine peptide fold change (10 µM),probe-labelled cysteine peptide fold change (50 µM)
HGH1_Q9BTY7_227_NCCFEHR (UniProt Q9BTY7),-0.081,-0.695
HK1_P19367_256_MCINTEWGAFGDDGSLEDIRTEFDR (UniProt P19367),0.303,0.365
HERC2_O95714_3193_GGSEGCNIPQNIER (UniProt O95714),0.0332,0.0875
HECTD3_Q5T447_592_DMYVPNPSCR (UniProt Q5T447),-0.0549,0.0115
HGS_O14964_166_APDWVDAEECHR (UniProt O14964),-0.00361,-0.0649
HIBADH_P31937_75_HGYPLIIYDVFPDACK (UniProt P31937),-0.159,-0.0721
HDAC10_Q969S8_508_LLCVALGQLDRPPDLAHDGR (UniProt Q969S8),0.15,0.0528
HELB_Q8NG08_368_AIAFSICDLMK (UniProt Q8NG08),0.301,-0.0621
HERC2_O95714_914_ALSALLPCAVSGNEVNISPGRR (UniProt O95714),-0.0136,-0.391
HERC2_O95714_33_DGLCGLWNEMVK (UniProt O95714),-0.11,-0.106
HIGD2A_Q9BW72_53_ENPVVPIGCLATAAALTYGLYSFHR (UniProt Q9BW72),0.152,0.0259
HECTD1_Q9ULT8_1855_LLQLSCNGNVK (UniProt Q9ULT8),-0.402,-0.535
HDLBP_Q00341_948_CDIIIISGR (UniProt Q00341),-0.0282,-0.0117
HDLBP_Q00341_636_RANCEAAR (UniProt Q00341),0.0667,-0.04
HEATR1_Q9H583_1263_QLILSCLLNICQK (UniProt Q9H583),0.0232,0.134
HDAC6_Q9UBN7_523+539_CLTLTPRPATEAELLTCHSAEYVGHLR (UniProt Q9UBN7),-0.21,-0.0913
HMGXB3_Q12766_800_TCGLKPSTLK (UniProt Q12766),-0.277,-0.603
HDGF_P51858_108_SCVEEPEPEPEAAEGDGDK (UniProt P51858),-0.176,-0.206
HDAC6_Q9UBN7_539_PATEAELLTCHSAEYVGHLR (UniProt Q9UBN7),-0.137,0.302
HIBCH_Q6NVY1_95_AFCAGGDIR (UniProt Q6NVY1),0.00459,0.0296
HDAC2_Q92769_13_VCYYYDGDIGNYYYGQGHPMKPHR (UniProt Q92769),-0.132,-0.362
